Experimental findings from PubChem BioAssay AID248 (DTP/NCI, 2004) are described below.

The assay has as its system L1210 leukemia ip in BDF1 mice, survival T/C. As to the kind of experiment: NCI In Vivo Anticancer Drug Screen. Data for tumor model L1210 Leukemia (intraperitoneal) in B6D2F1 (BDF1) mice. The following applies: T/C endpoint: mean survival time, higher T/C = longer survival.
Where [1] appears, read: dose: 400.0 mg/kg/injection, schedule: Q01DX001 (ip), vehicle: saline with Tween-80.
Setting [2] is: dose: 400.0 mg/kg/injection, schedule: Q04DX003 (ip), vehicle: saline with Tween-80.
Where [3] appears, read: dose: 100.0 mg/kg/injection, schedule: Q04DX002 (ip), vehicle: saline.
[4] abbreviates: dose: 400.0 mg/kg/injection, schedule: Q04DX003 (ip), vehicle: saline.
[5] abbreviates: dose: 400.0 mg/kg/injection, schedule: Q01DX009 (ip), vehicle: saline with Tween-80.
Setting [6] is: dose: 200.0 mg/kg/injection, schedule: Q01DX009 (ip), vehicle: saline with Tween-80.

The list shows only some results of the screen, not a fair sample: it gathers tests that were run many times, whatever their T/C, doses with no T/C, and many T/C values between a quarter and a half above the control. Other doses and runs of a compound stand elsewhere. T/C: endpoint of the treated group in % of that of the vehicle group. Some doses have a count of surviving animals in place of a T/C: the source holds a T/C of zero for them, seemingly a mark for toxic or unscored doses. Some survivor counts are full or nearly so, which does not show that the dose was tolerated: survival well below the control is almost never listed, so the zero probably covers shortened survival too. Counts of survivors are from the toxicity check (mostly the fifth day) where no day follows; animals may have died later. Schedules are NCI's codes, taken here to give the interval after Q, in days (D) or hours (H), and the number of doses after X. Some schedules carry Z or #; the key to these is not given. For survival time, this PubChem deposit counts one and a half times the control or more as active, and values a quarter to a half above the control carry no call in these data; other NCI protocols may use other cut-offs. Some doses were run more than once; the results are listed from low to high.

Turning to `O=[As](O)(CC(O)COc1ccc(Cl)cc1Cl)c1ccc(Cl)cc1` (stereo not given), the survivor count by setting is: (dose: 25.0 mg/kg/injection, schedule: Q01DX001 (ip), vehicle: saline with Tween-80) 0 of 6; (dose: 50.0 mg/kg/injection, schedule: Q01DX001 (ip), vehicle: saline with Tween-80) 0 of 6; (dose: 100.0 mg/kg/injection, schedule: Q01DX001 (ip), vehicle: saline with Tween-80) 0 of 6; (dose: 200.0 mg/kg/injection, schedule: Q01DX001 (ip), vehicle: saline with Tween-80) 0 of 6; under setting [1], 0 of 6.

Take `CC(C)C(C)/C=C\C(C)C1CCC2C3=CCC4CC(=O)CCC4(C)C3CCC21C` (stereo not given): the survivor count (dose: 100.0 mg/kg/injection, schedule: Q01DX001 (ip), vehicle: Klucel (hydroxypropylcellulose) (HPC)) was 3 of 3 and the survivor count (dose: 200.0 mg/kg/injection, schedule: Q01DX001 (ip), vehicle: Klucel (hydroxypropylcellulose) (HPC)) is listed as 3 of 3.

Regarding `CCN(C(=O)Nc1cccc(Cl)c1)c1ccccc1C`, the survivor count under setting [2] is recorded as 6 of 6.

`C#CCSC(C)C`: the T/C under setting [3] was 136 % of control.

As to `CC(=O)N1CCC(CC(O)Cc2ccnc3ccccc23)CC1` (stereo not given), the survivor count under setting [4] is given as 0 of 6.

`CNc1ccc(C(=O)C2CC2)cc1`: the survivor count under setting [5] is 1 of 6.

`O=C(/C=C/C=C/c1ccccc1)c1ccccc1O`: under setting [6], the survivor count is 6 of 6.

`NC(=O)C[CH2][Sn]([c]1ccccc1)([c]1ccccc1)[c]1ccccc1`: the survivor count under setting [6] is recorded as 0 of 3.

For the compound `CN(C)CCO/C(CN(C)C)=C(\C#N)c1ccccc1`, the survivor count is recorded as 0 of 6 (dose: 60.0 mg/kg/injection, schedule: Q01DX001 (ip), vehicle: carboxymethylcellulose (CMC)); 3 of 6 (dose: 75.0 mg/kg/injection, schedule: Q01DX001 (ip), vehicle: carboxymethylcellulose (CMC)); 1 of 6 (dose: 150.0 mg/kg/injection, schedule: Q01DX001 (ip), vehicle: carboxymethylcellulose (CMC)); 0 of 6 (dose: 300.0 mg/kg/injection, schedule: Q01DX001 (ip), vehicle: carboxymethylcellulose (CMC)).

Consider `Cc1cc(C2=NCC(C)(C)S2)ccc1O`, for which the survivor count is reported as 3 of 3 (dose: 200.0 mg/kg/injection, schedule: Q01DX005 (ip), vehicle: saline with Tween-80) and 3 of 3 (dose: 400.0 mg/kg/injection, schedule: Q01DX005 (ip), vehicle: saline with Tween-80).

As to `Cc1[nH]c(=O)[nH]c(=O)c1N(CCF)CCCl`, the survivor count runs as follows: (dose: 40.0 mg/kg/injection, schedule: Q01DX009 (ip), vehicle: Klucel (hydroxypropylcellulose) (HPC)) 6 of 6; (dose: 40.0 mg/kg/injection, schedule: Q01DX009 (ip), vehicle: saline) 10 of 10; (dose: 80.0 mg/kg/injection, schedule: Q01DX009 (ip), vehicle: Klucel (hydroxypropylcellulose) (HPC)) 0 of 6; (dose: 80.0 mg/kg/injection, schedule: Q01DX009 (ip), vehicle: saline) 7 of 10; (dose: 500.0 mg/kg/injection, schedule: Q01DX001 (ip), vehicle: Klucel (hydroxypropylcellulose) (HPC)) 3 of 8. Further, the T/C is, setting by setting: (dose: 65.0 mg/kg/injection, schedule: Q04DX003 (ip), vehicle: Klucel (hydroxypropylcellulose) (HPC)) 129 % of control; (dose: 300.0 mg/kg/injection, schedule: Q01DX001 (ip), vehicle: Klucel (hydroxypropylcellulose) (HPC)) 125 % of control.

On to `Cc1c2ccccc2cc2[n+]1CCc1ccccc1-2`, for which the survivor count under setting [1] is given as 0 of 6.

Regarding `COc1ccc(Br)cc1`, the survivor count under setting [5] is given as 2 of 6.

Turning to `CN(C)CC1CCC(CN(C)C)C1=O` (stereo not given), the survivor count (dose: 37.5 mg/kg/injection, schedule: Q01DX001 (ip), vehicle: saline) is listed as 1 of 6.

`CC1(C)CCCC(C)(C)N1`: the survivor count runs as follows: (dose: 100.0 mg/kg/injection, schedule: Q01DX001 (ip), vehicle: saline) 0 of 4; (dose: 200.0 mg/kg/injection, schedule: Q01DX001 (ip), vehicle: saline) 0 of 4; (dose: 400.0 mg/kg/injection, schedule: Q01DX001 (ip), vehicle: saline) 0 of 4.

Consider `CC(C)c1ccc2c(c1)CCC1C(CN=C(N)CSS(=O)(=O)O)CCCC21C` (stereo not given), for which, for the setting “dose: 300.0 mg/kg/injection, schedule: Q01DX001 (ip), vehicle: saline with Tween-80”, the survivor count is on record as 0 of 6.

In the case of `CN(C(=O)CCC(=O)N(C)c1ccccc1)c1ccccc1`, the survivor count under setting [5] is on record as 6 of 6.

Turning to `Cc1ccc(NC(=O)Nc2ccc(C3=NCCN3)cc2)cc1NC(=O)Nc1ccc(C2=NCCN2)cc1`, the survivor count is 2 of 6 (dose: 37.5 mg/kg/injection, schedule: Q01DX Z (ip), vehicle: water); 2 of 6 (dose: 75.0 mg/kg/injection, schedule: Q01DX Z (ip), vehicle: water); 3 of 6 (dose: 150.0 mg/kg/injection, schedule: Q01DX Z (ip), vehicle: water); 0 of 6 (dose: 300.0 mg/kg/injection, schedule: Q01DX Z (ip), vehicle: water).

With `COC(=O)CSC#N`, the survivor count was 0 of 3 under setting [3]; 0 of 3 (dose: 200.0 mg/kg/injection, schedule: Q04DX002 (ip), vehicle: saline); 0 of 3 (dose: 400.0 mg/kg/injection, schedule: Q04DX002 (ip), vehicle: saline).

As for `CCOC(=O)c1cnc(NN)nc1Nc1ccccc1Cl`, under setting [2], the survivor count is reported as 3 of 6.

Take `Nc1ccc(SCCCCCCSc2ccc(N)cc2)cc1`: the survivor count runs as follows: (dose: 200.0 mg/kg/injection, schedule: Q04DX003 (ip), vehicle: other) 6 of 6; (dose: 400.0 mg/kg/injection, schedule: Q04DX003 (ip), vehicle: other) 4 of 6.

For the compound `C=C1CC(c2ccccc2)(c2cccs2)OC1=O` (stereo not given), the survivor count (dose: 400.0 mg/kg/injection, schedule: Q04DX003 (ip), vehicle: Klucel (hydroxypropylcellulose) (HPC)) is 6 of 6.

`COc1ccc(CSc2ncnc3nc[nH]c23)cc1`: the T/C (dose: 100.0 mg/kg/injection, schedule: Q01DX015 (ip), vehicle: carboxymethylcellulose (CMC)) was 133 % of control.

For `COc1cccc(OC#N)c1OC`, the survivor count (dose: 50.0 mg/kg/injection, schedule: Q01DX009 (ip), vehicle: Klucel (hydroxypropylcellulose) (HPC)) is 5 of 6.

Turning to `CCC1CN1CC1CO1` (stereo not given), the T/C runs as follows: (dose: 15.0 mg/kg/injection, schedule: Q01DX Z (ip), vehicle: saline) 111, 121, 126, 139 % of control; (dose: 30.0 mg/kg/injection, schedule: Q01DX Z (ip), vehicle: saline) 126 % of control; (dose: 33.0 mg/kg/injection, schedule: Q01DX Z (ip), vehicle: saline) 125 % of control. Besides, the survivor count (dose: 113.0 mg/kg/injection, schedule: Q01DX Z (ip), vehicle: saline) is 5 of 6.

In the case of `O=S1(=O)CC(Br)C1`, the survivor count (dose: 100.0 mg/kg/injection, schedule: Q01DX009 (ip), vehicle: Klucel (hydroxypropylcellulose) (HPC)) was 2 of 3; the survivor count (dose: 100.0 mg/kg/injection, schedule: Q04DX002 (ip), vehicle: Klucel (hydroxypropylcellulose) (HPC)) is recorded as 0 of 3; the survivor count (dose: 200.0 mg/kg/injection, schedule: Q04DX002 (ip), vehicle: Klucel (hydroxypropylcellulose) (HPC)) was 0 of 3; the survivor count (dose: 400.0 mg/kg/injection, schedule: Q04DX002 (ip), vehicle: Klucel (hydroxypropylcellulose) (HPC)) is on record as 0 of 3.

Consider `CCNC(C)(C)C(SSSC(c1cccs1)C(C)(C)NCC)c1cccs1` (stereo not given), for which the survivor count is, setting by setting: (dose: 200.0 mg/kg/injection, schedule: Q04DX003 (ip), vehicle: saline) 6 of 6; under setting [4], 0 of 6.

Turning to `OCCNCc1ccc2ccccc2c1`, for the setting “dose: 300.0 mg/kg/injection, schedule: Q01DX015 (ip), vehicle: saline”, the survivor count is 0 of 6.

As for `CC1NCCCNCCCNC(C)c2cccc1n2` (stereo not given), the survivor count (dose: 50.0 mg/kg/injection, schedule: Q04DX002 (ip), vehicle: saline) is reported as 1 of 3.

Turning to `Nc1nc(C=O)c(-c2cccc3ccccc23)c(=O)[nH]1`, the survivor count under setting [5] is listed as 0 of 6.
